Some of the results follow.

Amino acid sequences for entries named in this document (tags omitted).
UniProt Q0JBA9, entry or part of it: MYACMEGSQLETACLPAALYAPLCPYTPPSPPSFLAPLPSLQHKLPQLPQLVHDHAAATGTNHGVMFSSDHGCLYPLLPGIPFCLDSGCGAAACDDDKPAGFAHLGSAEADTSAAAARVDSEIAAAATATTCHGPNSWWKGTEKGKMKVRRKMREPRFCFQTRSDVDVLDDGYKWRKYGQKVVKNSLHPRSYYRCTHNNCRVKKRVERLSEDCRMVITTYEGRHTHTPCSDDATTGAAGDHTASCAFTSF

The test addresses OsWRKY34 (Oryza sativa, UniProt Q0JBA9 1-250). The test can be described thus: protein-binding microarray (RPBM); PBS, 2% BSA, 51.3 ng/ul salmon testes DNA, 50 uM zinc acetate, 200 nM TF, 25 C, 1 h; high values mean tight binding. The following applies: protein: recombinant; tags: N-terminal polyhistidine and DsRed monomer fusion (pET32a); label: CyDye5-dUTP incorporated in the synthesized complementary strand; 3' TTTTT single-stranded linker to array surface; dsDNA, one strand shown. In a few lines:
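Polyhistidine-tagged DsRed fusions of transcription factors, joined at the N-terminus, were expressed in E. coli BL21-CodonPlus and isolated on Ni–NTA. They were incubated at 200 nM for 1 h at 25 °C on a custom Agilent array, double-stranded and BSA-blocked, in PBS with 2% BSA, salmon testes DNA and 50 µM zinc acetate. The binding signal is per-feature fluorescence intensity (arbitrary units) read on an Axon 4000B scanner after washing.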
Turning to “GCTCCAAATTTCGTTGTTACTCCTCTCGTTGCGCTGCATGCGGAGTCACCTAGTGCAG”, the binding signal is 8800 fluorescence intensity (a.u.). For “TCTGGTCTGGACGCTTCCTCGCATCGCGTCGTGGGCCTTCCGGAGTCACCTAGTGCAG”, the binding signal was 9900 fluorescence intensity (a.u.). The same measure for “TCCTCCTGATCCTCATCGTATACCATCGCACAACCAACAACGGAGTCACCTAGTGCAG”: 9910 fluorescence intensity (a.u.); for “GGGCTTGCTTTCTTTGGTTCACTTTTGATTTTAGAAGATACGGAGTCACCTAGTGCAG”: 8050 fluorescence intensity (a.u.). For the sequence “CTCACAGGCTCACACACAGGCACACACACACTTCCCGATGCGGAGTCACCTAGTGCAG”, the binding signal was 12200 fluorescence intensity (a.u.). The value for “TTTCTTTTTTCATACCCCGGTCCGCACTGTCCACCGTAGTCGGAGTCACCTAGTGCAG” was 8640 fluorescence intensity (a.u.); that for “CGAGTACCATTCACCATTGTACAACCAACGGCTCAGATCACGGAGTCACCTAGTGCAG” was 8140 fluorescence intensity (a.u.). The value for “TCTTGATCCTTGTATCCCTGTATGTTGGTTAACTATTTCGCGGAGTCACCTAGTGCAG” was 8640 fluorescence intensity (a.u.); that for “ACTAGTAGTGGTTTGCAGTCCTGTTTGGTAGTGCGCATTTCGGAGTCACCTAGTGCAG” was 13900 fluorescence intensity (a.u.). The same measure for “GGCGGGCGGTGGAATTTGTTGATGTTTGTGTGAATTTGTTCGGAGTCACCTAGTGCAG”: 10500 fluorescence intensity (a.u.); for “TAATATTCTCATGATGAAGTTGGTGTGGTGGTTAAGTAGTCGGAGTCACCTAGTGCAG”: 8720 fluorescence intensity (a.u.); for “ATGAAACTAATTTAGTGTTATAAGTATTGTTATATTTTTCCGGAGTCACCTAGTGCAG”: 8030 fluorescence intensity (a.u.). Take “AATATCCGGTATTCGAGTTTAGGGGTAATTCGATCGTCTACGGAGTCACCTAGTGCAG”: the binding signal is 8670 fluorescence intensity (a.u.).

Regarding “GCCACATGGCTTCACCCCGTCGCACGACTTATCTGGTCCACGGAGTCACCTAGTGCAG”, the binding signal is 9510 fluorescence intensity (a.u.). For the sequence “GATCCTCTCTGTCTTGTGCTTACCGTCGCGGCGTCGGTCGCGGAGTCACCTAGTGCAG”, the binding signal was 8950 fluorescence intensity (a.u.). Turning to “ACGATTCTTGCATTACTTCACCCCACGCGATTCCCTCCCCCGGAGTCACCTAGTGCAG”, the binding signal was 9980 fluorescence intensity (a.u.). “CCTTATCGTCATGACACGCCTCCACCGCCGGCGCTTCCATCGGAGTCACCTAGTGCAG”: the binding signal is 8110 fluorescence intensity (a.u.).

With “CTACCCACTCGCGCCGGTCATCGTCATTGTCGCCATGTCCCGGAGTCACCTAGTGCAG”, the binding signal was 10800 fluorescence intensity (a.u.). In the case of “CGTTGTATCGTTGCCTCTCGTCCTATCCCTATCTCATTCGCGGAGTCACCTAGTGCAG”, the binding signal is 9310 fluorescence intensity (a.u.).

On to “CCACAAATTAATCCCTCATGCTCTTGGCATTTACCCACCACGGAGTCACCTAGTGCAG”, for which the binding signal was 8160 fluorescence intensity (a.u.). The same measure for “GGTGAAGTCTTATAGGCATGCCTAGTCCATTGTCTTTTAGCGGAGTCACCTAGTGCAG”: 9220 fluorescence intensity (a.u.); for “AAAAACGCTAACCTCCGCCATCCCCACGCCGCGCCGCCCGCGGAGTCACCTAGTGCAG”: 8170 fluorescence intensity (a.u.). Turning to “GTTCGCCACCAAGGACGCCGCCTTCATCCTCTGCTACTCCCGGAGTCACCTAGTGCAG”, the binding signal was 8550 fluorescence intensity (a.u.). As for “CACGCCTTCACCGACCGCCACTCCTGCTCGCCCGAATCGACGGAGTCACCTAGTGCAG”, the binding signal was 11000 fluorescence intensity (a.u.). The same measure for “CCTTTCCGGCGATTTCAATTTCTCCAGTGATTCTCCGACGCGGAGTCACCTAGTGCAG”: 8870 fluorescence intensity (a.u.). Turning to “TTCTTTTCTTTTTCTTTTTCGTTTTCTTCTTATTCTTTTTCGGAGTCACCTAGTGCAG”, the binding signal was 12900 fluorescence intensity (a.u.).

On to “CCGATACCGTGTTGGTTAATGTTTCTATCTTATAATCCTGCGGAGTCACCTAGTGCAG”, for which the binding signal was 9040 fluorescence intensity (a.u.). The same measure for “TATCTTCCGTGCCCTTTCCGCTAGTTGACCGTTAAATTCTCGGAGTCACCTAGTGCAG”: 9040 fluorescence intensity (a.u.). The value for “GTCAGTTTGTCGCTTTTAAATTATTGTGGCAATAACAATTCGGAGTCACCTAGTGCAG” was 9220 fluorescence intensity (a.u.). The same measure for “TGCCTAGATGAATACTGCATGTTTTTTTTTTGTTTGATTTCGGAGTCACCTAGTGCAG”: 9620 fluorescence intensity (a.u.); for “TCCCGTATAACCCGTCAAAGGTAATGGTCACTACTGACCACGGAGTCACCTAGTGCAG”: 10600 fluorescence intensity (a.u.); for “GCCAACTTGATCCCAACTGAAATTGACTTCCTTGACCAAACGGAGTCACCTAGTGCAG”: 9240 fluorescence intensity (a.u.).

As for “AGTTACTGAGTTAGACGTCTCAAGCTGTGTCGTGGAATAACGGAGTCACCTAGTGCAG”, the binding signal was 8700 fluorescence intensity (a.u.). “GTCAAACGTCTGATGTGACATCCAAAAATTTTCATTTCACCGGAGTCACCTAGTGCAG”: the binding signal is 8200 fluorescence intensity (a.u.). Consider “ACGTGTACCAGCGCGCCGCCTCTGCTCTGCTCCTGAATTCCGGAGTCACCTAGTGCAG”, for which the binding signal was 10000 fluorescence intensity (a.u.). The value for “CTTTTTCCACCAACGGACCTGTTGACCCATGTCACCACCCCGGAGTCACCTAGTGCAG” was 9170 fluorescence intensity (a.u.); that for “ATAGTTGTTTTGCCTACCCCACCCATGCCGAAGATGGACACGGAGTCACCTAGTGCAG” was 8790 fluorescence intensity (a.u.). Consider “CTCTGAATCTCTGATACTACTATATTTTTCTTTGGTCGATCGGAGTCACCTAGTGCAG”, for which the binding signal was 8840 fluorescence intensity (a.u.). The same measure for “CTAATTGGCCCAATTACCACAGGCCCACACCCTTTTCTTCCGGAGTCACCTAGTGCAG”: 8850 fluorescence intensity (a.u.); for “TTGGTTTTCTATTCCTCTTTTCAGTTTTATCTTGTACGGTCGGAGTCACCTAGTGCAG”: 8620 fluorescence intensity (a.u.); for “CTTTCATATGTATAAACAAGGTGTTATTTTATCTTTTTTTCGGAGTCACCTAGTGCAG”: 10600 fluorescence intensity (a.u.).

Turning to “CTCTCTCAACTCCACCACATTTGTCTGTGTTCTTGCTGTCCGGAGTCACCTAGTGCAG”, the binding signal is 8920 fluorescence intensity (a.u.).

(Values after article PMC7819943, “Rice protein-binding microarrays: a tool to detect cis-acting elements near promoter regions in rice”.)
